# Results taken from the supplement of paper PMC12819154, “High-throughput peptide-centric local stability assay extends protein–ligand identification to membrane proteins, tissues and bacteria” (Nature Structural & Molecular Biology, 2025).
# Amino acid sequences for entries named in this document (tags omitted). A change or cut given only in a name is not applied to a line headed by its entry.
# UniProt Q8BHK9: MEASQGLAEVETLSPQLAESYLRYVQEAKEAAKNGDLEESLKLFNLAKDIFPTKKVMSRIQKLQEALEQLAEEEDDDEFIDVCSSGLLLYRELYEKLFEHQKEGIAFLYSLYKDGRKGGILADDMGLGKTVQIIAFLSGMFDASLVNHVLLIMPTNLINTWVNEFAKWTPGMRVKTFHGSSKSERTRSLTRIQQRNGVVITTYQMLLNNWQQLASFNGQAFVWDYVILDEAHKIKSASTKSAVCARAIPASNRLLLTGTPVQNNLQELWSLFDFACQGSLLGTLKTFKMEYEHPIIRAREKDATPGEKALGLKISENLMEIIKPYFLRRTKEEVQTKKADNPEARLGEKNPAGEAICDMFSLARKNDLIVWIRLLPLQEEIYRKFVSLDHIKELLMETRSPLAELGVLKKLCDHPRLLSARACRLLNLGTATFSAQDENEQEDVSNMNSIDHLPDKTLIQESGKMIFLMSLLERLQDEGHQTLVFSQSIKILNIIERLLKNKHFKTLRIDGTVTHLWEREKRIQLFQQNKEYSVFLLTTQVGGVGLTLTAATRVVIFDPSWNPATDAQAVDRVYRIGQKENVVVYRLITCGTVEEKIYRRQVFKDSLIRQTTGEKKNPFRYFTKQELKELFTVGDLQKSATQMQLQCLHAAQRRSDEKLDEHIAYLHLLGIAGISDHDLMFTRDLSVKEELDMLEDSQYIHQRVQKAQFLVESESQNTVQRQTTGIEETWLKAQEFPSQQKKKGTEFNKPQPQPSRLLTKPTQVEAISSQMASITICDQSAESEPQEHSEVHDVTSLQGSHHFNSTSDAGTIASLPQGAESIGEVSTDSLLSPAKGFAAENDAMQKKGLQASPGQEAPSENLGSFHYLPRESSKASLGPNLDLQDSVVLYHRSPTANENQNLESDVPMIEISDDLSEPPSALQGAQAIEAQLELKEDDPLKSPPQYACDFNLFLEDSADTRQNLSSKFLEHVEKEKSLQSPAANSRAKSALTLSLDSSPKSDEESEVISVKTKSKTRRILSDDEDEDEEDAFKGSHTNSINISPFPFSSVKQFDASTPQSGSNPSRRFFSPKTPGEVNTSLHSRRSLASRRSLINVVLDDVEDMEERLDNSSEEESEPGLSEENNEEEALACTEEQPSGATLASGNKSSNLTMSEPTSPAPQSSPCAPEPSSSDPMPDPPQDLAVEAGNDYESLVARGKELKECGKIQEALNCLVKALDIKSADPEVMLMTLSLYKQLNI
# UniProt Q8BHG9: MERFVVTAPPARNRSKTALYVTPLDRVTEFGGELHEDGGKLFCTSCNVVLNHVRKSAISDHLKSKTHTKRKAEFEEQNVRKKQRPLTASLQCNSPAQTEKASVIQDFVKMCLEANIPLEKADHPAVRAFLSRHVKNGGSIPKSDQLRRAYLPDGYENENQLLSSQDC
# UniProt Q80X89: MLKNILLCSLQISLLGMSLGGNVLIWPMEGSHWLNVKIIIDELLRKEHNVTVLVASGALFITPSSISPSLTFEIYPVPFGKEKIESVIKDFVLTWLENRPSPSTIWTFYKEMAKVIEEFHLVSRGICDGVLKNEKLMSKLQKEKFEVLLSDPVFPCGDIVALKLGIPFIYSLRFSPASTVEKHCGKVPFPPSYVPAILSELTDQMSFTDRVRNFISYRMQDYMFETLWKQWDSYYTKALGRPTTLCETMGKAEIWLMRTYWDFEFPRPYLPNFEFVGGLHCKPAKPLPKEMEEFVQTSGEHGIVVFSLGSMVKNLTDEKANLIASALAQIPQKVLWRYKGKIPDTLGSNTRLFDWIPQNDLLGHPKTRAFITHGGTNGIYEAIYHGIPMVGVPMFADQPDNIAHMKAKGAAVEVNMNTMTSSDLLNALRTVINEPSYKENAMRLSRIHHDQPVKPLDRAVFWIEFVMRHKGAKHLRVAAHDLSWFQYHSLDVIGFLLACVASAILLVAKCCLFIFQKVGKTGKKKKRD
# UniProt Q8BGX2: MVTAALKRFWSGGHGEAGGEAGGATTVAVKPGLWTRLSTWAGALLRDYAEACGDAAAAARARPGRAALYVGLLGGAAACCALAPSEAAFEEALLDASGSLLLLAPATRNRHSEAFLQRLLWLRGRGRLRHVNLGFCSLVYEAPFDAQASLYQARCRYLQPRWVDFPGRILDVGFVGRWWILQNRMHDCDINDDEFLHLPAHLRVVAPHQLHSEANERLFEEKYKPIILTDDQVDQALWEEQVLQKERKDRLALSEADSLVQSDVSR
# UniProt Q80XS6: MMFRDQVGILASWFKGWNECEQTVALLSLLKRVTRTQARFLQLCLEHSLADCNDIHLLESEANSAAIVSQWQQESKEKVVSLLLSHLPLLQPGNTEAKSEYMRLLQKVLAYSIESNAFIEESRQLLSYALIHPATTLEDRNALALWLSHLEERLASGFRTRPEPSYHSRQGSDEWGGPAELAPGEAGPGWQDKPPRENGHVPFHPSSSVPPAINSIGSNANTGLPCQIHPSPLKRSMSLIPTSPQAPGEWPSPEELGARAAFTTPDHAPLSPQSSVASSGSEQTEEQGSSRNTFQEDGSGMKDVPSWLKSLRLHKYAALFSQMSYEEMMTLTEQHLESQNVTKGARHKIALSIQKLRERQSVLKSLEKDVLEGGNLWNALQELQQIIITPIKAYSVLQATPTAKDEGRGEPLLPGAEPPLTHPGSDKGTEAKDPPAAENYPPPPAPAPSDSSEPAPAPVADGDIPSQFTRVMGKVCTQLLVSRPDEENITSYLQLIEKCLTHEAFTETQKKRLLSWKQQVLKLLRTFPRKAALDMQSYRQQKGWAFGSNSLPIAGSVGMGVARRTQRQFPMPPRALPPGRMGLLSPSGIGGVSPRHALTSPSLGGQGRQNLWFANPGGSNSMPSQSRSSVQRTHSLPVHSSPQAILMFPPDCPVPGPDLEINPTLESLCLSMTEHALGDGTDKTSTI
# UniProt Q80Y98: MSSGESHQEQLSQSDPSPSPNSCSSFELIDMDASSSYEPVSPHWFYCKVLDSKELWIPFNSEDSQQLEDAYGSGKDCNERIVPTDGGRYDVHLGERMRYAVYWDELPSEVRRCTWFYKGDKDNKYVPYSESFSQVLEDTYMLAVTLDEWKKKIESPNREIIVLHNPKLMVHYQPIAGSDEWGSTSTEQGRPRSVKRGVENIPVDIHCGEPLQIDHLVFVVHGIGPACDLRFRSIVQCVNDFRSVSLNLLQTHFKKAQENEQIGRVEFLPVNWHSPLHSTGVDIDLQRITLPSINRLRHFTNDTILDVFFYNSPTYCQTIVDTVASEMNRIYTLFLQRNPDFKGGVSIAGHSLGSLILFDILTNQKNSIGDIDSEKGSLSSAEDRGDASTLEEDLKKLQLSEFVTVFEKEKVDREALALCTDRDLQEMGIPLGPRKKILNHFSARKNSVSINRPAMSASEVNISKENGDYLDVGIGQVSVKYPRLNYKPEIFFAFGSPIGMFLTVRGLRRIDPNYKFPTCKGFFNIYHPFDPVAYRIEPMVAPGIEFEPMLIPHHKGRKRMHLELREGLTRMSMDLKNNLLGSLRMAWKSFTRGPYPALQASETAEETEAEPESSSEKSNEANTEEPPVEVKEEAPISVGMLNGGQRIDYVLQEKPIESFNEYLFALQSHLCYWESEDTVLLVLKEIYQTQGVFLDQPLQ
# UniProt Q8BGH2: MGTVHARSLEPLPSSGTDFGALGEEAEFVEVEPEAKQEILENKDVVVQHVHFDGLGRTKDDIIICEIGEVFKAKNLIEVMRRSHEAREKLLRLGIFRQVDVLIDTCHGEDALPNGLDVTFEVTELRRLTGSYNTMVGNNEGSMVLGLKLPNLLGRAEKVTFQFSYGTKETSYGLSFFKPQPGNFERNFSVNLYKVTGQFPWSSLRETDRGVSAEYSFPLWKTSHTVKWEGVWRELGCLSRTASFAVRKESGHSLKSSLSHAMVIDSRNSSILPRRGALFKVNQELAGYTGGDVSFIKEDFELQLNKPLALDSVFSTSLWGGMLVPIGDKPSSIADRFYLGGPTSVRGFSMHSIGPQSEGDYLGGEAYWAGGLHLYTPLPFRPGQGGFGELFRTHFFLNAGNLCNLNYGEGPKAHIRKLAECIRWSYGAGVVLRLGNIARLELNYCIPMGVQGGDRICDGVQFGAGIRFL
# UniProt Q80ZQ9: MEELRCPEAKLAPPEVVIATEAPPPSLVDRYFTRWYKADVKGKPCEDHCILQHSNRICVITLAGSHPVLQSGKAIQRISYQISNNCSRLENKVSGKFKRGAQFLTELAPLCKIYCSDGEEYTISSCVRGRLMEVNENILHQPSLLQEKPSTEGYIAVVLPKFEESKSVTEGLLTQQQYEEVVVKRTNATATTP
# UniProt Q810D6, whole entry: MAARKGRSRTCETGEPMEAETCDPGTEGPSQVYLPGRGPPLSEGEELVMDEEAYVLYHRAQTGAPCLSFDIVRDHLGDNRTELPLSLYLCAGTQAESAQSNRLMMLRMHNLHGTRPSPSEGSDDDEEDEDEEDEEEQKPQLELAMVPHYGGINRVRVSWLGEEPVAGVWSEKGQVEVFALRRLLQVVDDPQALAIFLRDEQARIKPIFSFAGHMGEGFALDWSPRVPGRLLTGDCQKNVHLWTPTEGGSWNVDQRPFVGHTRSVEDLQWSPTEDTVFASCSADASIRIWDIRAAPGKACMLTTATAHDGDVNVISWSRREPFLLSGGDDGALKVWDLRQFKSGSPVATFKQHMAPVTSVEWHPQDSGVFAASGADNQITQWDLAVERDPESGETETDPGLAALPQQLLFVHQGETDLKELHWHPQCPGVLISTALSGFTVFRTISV
# UniProt Q80ZK9: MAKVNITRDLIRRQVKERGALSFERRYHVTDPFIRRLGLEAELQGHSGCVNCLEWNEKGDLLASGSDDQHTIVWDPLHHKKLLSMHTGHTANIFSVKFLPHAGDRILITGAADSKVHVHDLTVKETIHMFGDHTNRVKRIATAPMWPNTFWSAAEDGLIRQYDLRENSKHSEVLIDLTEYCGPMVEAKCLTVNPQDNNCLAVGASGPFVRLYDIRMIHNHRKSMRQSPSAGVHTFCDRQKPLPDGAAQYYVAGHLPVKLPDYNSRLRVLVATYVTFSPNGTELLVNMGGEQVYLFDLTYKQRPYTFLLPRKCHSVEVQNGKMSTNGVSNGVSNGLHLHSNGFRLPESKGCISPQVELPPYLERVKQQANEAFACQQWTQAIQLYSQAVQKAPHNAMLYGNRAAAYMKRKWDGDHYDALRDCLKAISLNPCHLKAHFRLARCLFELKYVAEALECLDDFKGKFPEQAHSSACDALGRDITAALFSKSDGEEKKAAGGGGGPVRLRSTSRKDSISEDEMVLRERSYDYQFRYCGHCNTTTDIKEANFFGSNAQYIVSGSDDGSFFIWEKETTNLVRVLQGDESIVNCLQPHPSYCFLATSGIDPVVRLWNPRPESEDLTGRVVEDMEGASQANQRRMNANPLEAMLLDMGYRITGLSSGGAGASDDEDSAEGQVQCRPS
# The list shows a part of the results. Most values lie at the level of the controls, where differences are scatter.
# Compound: CN[C@@H]1C[C@H]2O[C@@](C)([C@@H]1OC)n1c3ccccc3c3c4c(c5c6ccccc6n2c5c31)C(=O)NC4 [staurosporine]
# Assay: log2 fold change of tryptic peptide abundance, ligand vs vehicle (limited proteolysis) (log2 ratio); higher = more trypsin-susceptible (destabilized)
# Conditions: ligand concentration: 20 uM; sample: mouse liver crude lysate; replicate design: treated separately
row,Target,log2 fold change
1,"UniProt Q8BHK9 (peptide sequence: LITCGTVEEK, peptide start residue: 587)",0.175
2,"UniProt Q8BHG9 (peptide sequence: FVVTAPPAR, peptide start residue: 4)",0.21
3,"UniProt Q80X89 (peptide sequence: IHHDQPVKPLDR, peptide start residue: 448)",-0.437
4,"UniProt Q80YE4 (peptide sequence: HSGIQDSQKEQDLR, peptide start residue: 1018)",0.367
5,"UniProt Q8BGX2 (peptide sequence: MHDCDINDDEFLHLPAHLR, peptide start residue: 185)",-0.332
6,"UniProt Q80XS6 (peptide sequence: CLTHEAFTETQK, peptide start residue: 499)",0.947
7,"UniProt Q80Y98 (peptide sequence: GDASTLEEDLKK, peptide start residue: 385)",-0.507
8,"UniProt Q8BGH2 (peptide sequence: FYLGGPTSVR, peptide start residue: 337)",0.406
9,"UniProt Q80ZQ9 (peptide sequence: ISYQISNNCSR, peptide start residue: 78)",0.226
10,"UniProt Q810D6 (peptide sequence: SGSPVATFK, peptide start residue: 342)",0.119
11,"UniProt Q80ZK9 (peptide sequence: GKFPEQAHSSACDALGR, peptide start residue: 460)",0.365
